Data as given in patent US20230265212A1 (OVERA, published 2023).
These are yes or no findings as the source states them, for the method shown. Some binding calls cover weakened binding; strength is not graded here.

T1: human SAS1B (human) (UniProt Q6HA08)
T1 sequence (looked up): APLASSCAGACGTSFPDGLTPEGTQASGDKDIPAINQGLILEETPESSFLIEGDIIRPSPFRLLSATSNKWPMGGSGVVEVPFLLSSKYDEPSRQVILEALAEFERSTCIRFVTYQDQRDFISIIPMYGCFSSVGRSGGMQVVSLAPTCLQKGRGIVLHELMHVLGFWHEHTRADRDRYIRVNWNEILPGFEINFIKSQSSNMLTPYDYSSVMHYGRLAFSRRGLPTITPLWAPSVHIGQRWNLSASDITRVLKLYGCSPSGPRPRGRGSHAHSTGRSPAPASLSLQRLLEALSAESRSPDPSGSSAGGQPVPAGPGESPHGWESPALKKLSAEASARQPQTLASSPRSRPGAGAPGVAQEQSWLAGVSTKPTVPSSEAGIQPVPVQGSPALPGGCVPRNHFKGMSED

B1: monoclonal antibody OV119 (antibody, V domains shown)
VH: EVQLQESGPELVKPGASVKISCKTSGYTFTEYPMHWVKQSHGKSLEWIGGINPNNGDTTYNQRFKGKATLTVDKSSGTAYMELRSLTSEDSAVYYCVPNFDWFAYWGQGTLVTVSP
VL: DVLMTQSPLSLPVSLGDQASISCRSSQSIVHSYGNTYLEWYLQKPGQSPKLLIYKVSNRFSGVPDRFSGSGSGTDFTLRISRVEAEDLGIYYCFQGSHLPFTFGGGTKLEIK
notes: Mouse hybridoma monoclonal IgG; also called naked OV119 (unconjugated)
B2: monoclonal antibody OV115 (antibody, V domains shown)
VH: DVQLQESGPGLVKPSQSLSLTCTVTGYSLTSDYAWNWIRQFPGKKVEWMGYLSYSGRTSYNPSLKSRISITRDTSRNQFFLQLNSVTTEDTATYYCARMGGNFGFDYWGQGTTLTVST
VL: GIVMTQAPLSLPVSLGDQASISCRSSQSLVHINGSTYLHWYLQKPGQSPNLLIYKVSYRFSGVPDRFSGSGSGTDFTLKITRVEAEDLGVYFCSQSTHVPLTFGSGTKLEIK
B3: monoclonal antibody OV123 (antibody, V domains shown)
VH: EVQLQESGPGLVKPSQSLSLTCTVTGYSITSDNAWNWIRQFPGNKLEWMGYISYSGRTSYNPSLKSRISVTRDTSKNRFFLQLNSVTTEDTATYYCARIGSYFTMDYWGQGTSVTVSS
VL: DVVMTQTPLSLSVGLGDQASISCRSSQSLVHINGSTYLHWYLQKPGQSPKLLIYKIANRFSGVPDRFSGSGSGTDFTLKISRVEAEDLGAYFCSQSTHVPLTFGAGTKLEIK
B4: monoclonal antibody OV121 (antibody, V domains shown)
VH: EVQLQESGPGLVKPSQSLSLTCTVTGYSVTSDSAWNWIRQFPGNKLEWMGYISYSGSTTYNPSLKSRISITRDTSENQFFLQLRSVTTEDTATYYCARLGNLFTMDYWGQGTSVTVSA
VL: EILLTQSPVILAASPGEKVTITCSASSSLNYMNWYQQRPGSSPKIWIYGISNLASGVPARFSGSGSGTSFSFTINSMEAEDVATYYCQQRSSFPFTFGSGTKLEIK

Each binder was assayed against T1, human SAS1B (human) (assay: live staining of zona-free human oocytes, fluorescence microscopy).

| binding | Binder |
| --- | --- |
| binds | B1 |

The binders below were run against T1, human SAS1B (human) (assay: cell-surface flow cytometry on AsPc-1, Colo205, SNU539, SAS1B-HEK293T and SAS1BX1-HEK293T).

| binding | Binder |
| --- | --- |
| binds | B2 |
| binds | B3 |
| binds | B1 |
| binds | B4 |

These binders were tested against T1, human SAS1B (human) (assay: live staining of human oocytes, fluorescence microscopy).

| binding | Binder |
| --- | --- |
| binds | B2 |
| binds | B3 |
| binds | B1 |
| binds | B4 |
